# In paper PMC10177047:
# The chains behind the UniProt entries cited, without tags or fusion partners.
# UniProt O14497: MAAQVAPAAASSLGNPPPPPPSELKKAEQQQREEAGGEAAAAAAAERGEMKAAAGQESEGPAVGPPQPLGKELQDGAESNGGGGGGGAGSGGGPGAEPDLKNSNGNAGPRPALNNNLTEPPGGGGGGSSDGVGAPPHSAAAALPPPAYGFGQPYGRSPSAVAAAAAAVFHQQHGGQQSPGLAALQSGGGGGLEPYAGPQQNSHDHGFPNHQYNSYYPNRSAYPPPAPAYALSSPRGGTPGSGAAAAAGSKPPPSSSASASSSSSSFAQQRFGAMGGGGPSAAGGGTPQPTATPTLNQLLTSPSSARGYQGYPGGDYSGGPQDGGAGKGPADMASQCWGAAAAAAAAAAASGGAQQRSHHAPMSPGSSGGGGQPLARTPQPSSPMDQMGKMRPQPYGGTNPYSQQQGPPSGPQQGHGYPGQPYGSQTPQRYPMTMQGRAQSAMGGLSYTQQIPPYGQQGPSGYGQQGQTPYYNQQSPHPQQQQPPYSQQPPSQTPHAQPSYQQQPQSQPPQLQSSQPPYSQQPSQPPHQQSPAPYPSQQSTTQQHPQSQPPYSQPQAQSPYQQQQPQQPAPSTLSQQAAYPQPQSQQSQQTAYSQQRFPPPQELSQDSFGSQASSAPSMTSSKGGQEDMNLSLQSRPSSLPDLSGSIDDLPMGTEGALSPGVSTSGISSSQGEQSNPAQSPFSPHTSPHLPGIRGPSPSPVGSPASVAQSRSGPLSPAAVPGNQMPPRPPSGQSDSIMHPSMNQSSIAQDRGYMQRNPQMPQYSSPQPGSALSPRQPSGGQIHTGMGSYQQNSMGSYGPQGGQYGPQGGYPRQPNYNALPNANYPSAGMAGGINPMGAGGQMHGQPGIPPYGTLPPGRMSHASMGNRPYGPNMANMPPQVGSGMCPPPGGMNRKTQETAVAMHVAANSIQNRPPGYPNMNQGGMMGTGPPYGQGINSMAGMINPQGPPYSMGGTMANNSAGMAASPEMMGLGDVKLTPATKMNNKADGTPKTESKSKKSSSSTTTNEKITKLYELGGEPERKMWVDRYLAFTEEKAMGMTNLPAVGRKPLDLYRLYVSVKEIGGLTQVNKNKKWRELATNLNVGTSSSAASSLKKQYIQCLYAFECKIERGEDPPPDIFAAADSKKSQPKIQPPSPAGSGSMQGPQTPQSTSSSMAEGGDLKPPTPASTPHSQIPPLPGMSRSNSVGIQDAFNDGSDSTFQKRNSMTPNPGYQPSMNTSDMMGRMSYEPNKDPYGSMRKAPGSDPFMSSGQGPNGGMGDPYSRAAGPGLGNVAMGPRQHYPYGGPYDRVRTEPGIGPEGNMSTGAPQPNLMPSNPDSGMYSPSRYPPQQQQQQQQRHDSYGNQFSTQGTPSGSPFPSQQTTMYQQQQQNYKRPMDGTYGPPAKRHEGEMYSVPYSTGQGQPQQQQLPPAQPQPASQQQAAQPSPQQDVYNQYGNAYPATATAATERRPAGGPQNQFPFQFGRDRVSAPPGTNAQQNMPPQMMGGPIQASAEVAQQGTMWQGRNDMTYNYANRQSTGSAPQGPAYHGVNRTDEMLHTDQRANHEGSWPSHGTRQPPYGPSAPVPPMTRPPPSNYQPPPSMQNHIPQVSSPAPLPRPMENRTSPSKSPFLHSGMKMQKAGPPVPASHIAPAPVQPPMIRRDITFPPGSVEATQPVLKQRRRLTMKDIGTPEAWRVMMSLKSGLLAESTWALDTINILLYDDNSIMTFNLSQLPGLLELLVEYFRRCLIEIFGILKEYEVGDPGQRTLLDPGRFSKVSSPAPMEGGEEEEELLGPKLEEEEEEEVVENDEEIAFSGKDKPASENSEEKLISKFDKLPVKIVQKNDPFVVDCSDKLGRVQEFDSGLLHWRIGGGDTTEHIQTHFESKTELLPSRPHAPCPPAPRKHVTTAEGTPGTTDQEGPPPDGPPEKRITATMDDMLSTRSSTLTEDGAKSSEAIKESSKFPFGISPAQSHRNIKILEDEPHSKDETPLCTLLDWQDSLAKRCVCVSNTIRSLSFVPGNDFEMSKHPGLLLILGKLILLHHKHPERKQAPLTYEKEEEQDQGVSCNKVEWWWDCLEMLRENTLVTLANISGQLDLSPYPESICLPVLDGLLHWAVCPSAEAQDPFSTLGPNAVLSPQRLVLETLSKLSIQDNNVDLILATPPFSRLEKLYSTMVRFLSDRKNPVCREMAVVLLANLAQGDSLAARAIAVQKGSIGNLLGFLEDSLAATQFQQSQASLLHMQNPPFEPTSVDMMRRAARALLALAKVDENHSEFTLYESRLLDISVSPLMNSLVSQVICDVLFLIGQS
# UniProt P51532: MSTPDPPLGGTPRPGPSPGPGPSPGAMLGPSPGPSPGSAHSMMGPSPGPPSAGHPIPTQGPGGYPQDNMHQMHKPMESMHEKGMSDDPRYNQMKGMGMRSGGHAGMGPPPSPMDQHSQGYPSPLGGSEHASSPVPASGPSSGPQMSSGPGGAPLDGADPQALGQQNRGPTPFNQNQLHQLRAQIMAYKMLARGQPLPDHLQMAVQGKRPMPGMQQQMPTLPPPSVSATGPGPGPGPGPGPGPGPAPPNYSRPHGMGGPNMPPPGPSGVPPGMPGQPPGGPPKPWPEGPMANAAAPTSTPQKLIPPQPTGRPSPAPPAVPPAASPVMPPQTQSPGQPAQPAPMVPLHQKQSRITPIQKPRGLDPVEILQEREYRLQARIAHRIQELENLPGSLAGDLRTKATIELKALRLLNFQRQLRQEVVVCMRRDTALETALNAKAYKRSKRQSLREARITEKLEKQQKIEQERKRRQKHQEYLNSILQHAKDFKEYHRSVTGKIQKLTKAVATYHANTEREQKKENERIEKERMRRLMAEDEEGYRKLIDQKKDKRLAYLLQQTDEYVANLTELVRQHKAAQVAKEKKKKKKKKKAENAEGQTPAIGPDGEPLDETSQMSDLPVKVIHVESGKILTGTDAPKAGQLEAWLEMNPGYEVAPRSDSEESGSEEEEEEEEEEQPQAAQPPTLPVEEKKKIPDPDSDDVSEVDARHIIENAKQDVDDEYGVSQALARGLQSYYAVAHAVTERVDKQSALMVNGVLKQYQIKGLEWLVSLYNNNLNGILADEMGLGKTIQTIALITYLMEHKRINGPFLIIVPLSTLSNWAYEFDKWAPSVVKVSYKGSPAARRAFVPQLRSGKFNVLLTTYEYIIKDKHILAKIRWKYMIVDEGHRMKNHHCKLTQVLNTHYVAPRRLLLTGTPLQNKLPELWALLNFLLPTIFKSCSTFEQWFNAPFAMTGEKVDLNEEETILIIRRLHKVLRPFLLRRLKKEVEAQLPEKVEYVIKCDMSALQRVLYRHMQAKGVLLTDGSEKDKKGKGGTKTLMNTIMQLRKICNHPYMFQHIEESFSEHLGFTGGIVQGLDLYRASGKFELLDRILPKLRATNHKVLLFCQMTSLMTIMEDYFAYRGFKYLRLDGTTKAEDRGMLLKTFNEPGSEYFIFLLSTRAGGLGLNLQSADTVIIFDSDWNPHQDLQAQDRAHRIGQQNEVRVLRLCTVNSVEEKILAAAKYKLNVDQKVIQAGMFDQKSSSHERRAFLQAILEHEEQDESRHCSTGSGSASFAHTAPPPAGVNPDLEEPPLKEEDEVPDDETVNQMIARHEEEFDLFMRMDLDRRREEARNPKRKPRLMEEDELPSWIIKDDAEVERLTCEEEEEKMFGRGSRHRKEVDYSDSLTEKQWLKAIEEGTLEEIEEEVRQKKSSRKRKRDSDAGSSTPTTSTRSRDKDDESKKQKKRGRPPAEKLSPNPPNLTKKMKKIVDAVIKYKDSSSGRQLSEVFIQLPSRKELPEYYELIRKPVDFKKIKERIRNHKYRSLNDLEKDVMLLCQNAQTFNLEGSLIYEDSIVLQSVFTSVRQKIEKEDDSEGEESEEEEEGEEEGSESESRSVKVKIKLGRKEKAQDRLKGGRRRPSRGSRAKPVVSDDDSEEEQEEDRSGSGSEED
# UniProt P46937: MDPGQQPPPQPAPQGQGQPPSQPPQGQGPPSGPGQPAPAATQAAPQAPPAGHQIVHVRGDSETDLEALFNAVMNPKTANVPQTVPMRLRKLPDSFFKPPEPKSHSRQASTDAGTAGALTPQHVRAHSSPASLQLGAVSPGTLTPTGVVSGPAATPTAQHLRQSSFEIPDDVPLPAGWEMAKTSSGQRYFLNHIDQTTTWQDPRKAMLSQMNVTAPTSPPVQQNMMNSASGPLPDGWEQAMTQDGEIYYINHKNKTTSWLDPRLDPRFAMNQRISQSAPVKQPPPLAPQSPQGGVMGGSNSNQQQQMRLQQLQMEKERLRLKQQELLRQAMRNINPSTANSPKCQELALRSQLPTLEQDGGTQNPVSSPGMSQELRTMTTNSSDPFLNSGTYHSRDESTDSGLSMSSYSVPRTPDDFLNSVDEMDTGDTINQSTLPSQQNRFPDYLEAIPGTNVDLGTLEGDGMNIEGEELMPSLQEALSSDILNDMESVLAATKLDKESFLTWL
# No constants are given. Whether binding was seen depends on the method and setting. In cells and extracts the contact can be indirect. Some entries that bind do so weakly or less than the wild type.
# Biological target: ARID1A (human (endogenous in MDA-MB-231)) (UniProt O14497)
# Test: co-IP; lysates (RIPA buffer) of MDA-MB-231 (and BT-549) cells; anti-ARID1A, anti-YAP, anti-BRG1 or anti-TEAD antibody at 4 °C overnight, protein A/G beads, Western blot; control, ARID1A knock-out, ARID1A-overexpressing and siBRG1 cells
row,binding,Substance
1,binds,BRG1 (from UniProt P51532 1-1647)
2,binds,YAP (from UniProt P46937 1-504)
